Literature values, collected in patent US9050475B2, “High SPF sunscreen compositions” (MD SOLARSCIENCES CORP., priority 2010, dated 2015).
At least one compound was matched to its structure with a doubt left.

Nc1ccc(C(=O)O)cc1 [Aminobenzoic acid]
Range Covered: UV-B (key: UV-A1: 340-400 nm; UV-A2: 320-340 nm; UV-B: 290-320 nm)
